# PubChem BioAssay AID2685 (National Center for Advancing Translational Sciences (NCATS), 2010)
# This is one part of the list. Shown are side measurements of this screen, not its main read-out; they come without a call. Compounds called inactive in the main read-out are mostly missing here. The note in brackets gives the kind of curve behind each potency; many fits are weak.
# Test: qHTS Assay for Lipid Storage Modulators in Drosophila S3 Cells;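 for cell number change: cells counted by Cell Tracker Red CMTPX staining in the red channel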
# Details: BODIPY lipid droplet fluorescence, 18-24 h; for cell number change: measured here: cell count max response, cells fed with added oleic acid
# How it was run: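 Drosophila S3 cells loaded with oleic acid (400 uM, as added) and compounds at several concentrations; lipid droplets imaged by 488-nm laser-scanning cytometry, 500–530 nm intensity and object ratio to cell channel. Percent activity normalized to 20 uM Triacsin C.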
# [1] = measured here: cell number channel AC50, cells fed with added oleic acid
# [2] = measured here: lipid fluorescence (Fed channel) AC50, cells fed with added oleic acid
Structure (SMILES),cell number change [%],AC50 [1],AC50 [2]
CCN1C(=O)C2C(c3cccc(F)c3)NC(CC)(C(=O)OC)C2C1=O (centres undefined),-25.3,"0.082 µM [falling, full curve, poor fit]","0.731 µM [falling, full curve, poor fit]"
CCCCNS(=O)(=O)c1ccc(S(=O)(=O)N2CCC3(CC2)OCCO3)cc1,19.3,–,"6.51 µM [rising, single point]"
COc1ccc(CN(CCN2CCOCC2)C(=O)c2c(F)cccc2F)cc1OC,66.9,"6.51 µM [rising, partial curve]","2.59 µM [rising, full curve, poor fit]"
O=C(NC(=O)c1ccccc1O)c1ccc(C(F)(F)F)cc1,-45.2,–,"18.4 µM [falling, partial curve, poor fit]"
O=C(c1nc(-c2ccccc2)n(-c2ccccc2)n1)N1CCCCCC1,10.3,–,–
COc1ccccc1-n1c(-c2ccc(Cl)cc2)c[nH]c1=S,-28.3,–,–
CC[n+]1c(/C=C/c2ccc(OC(C)=O)c(OC)c2)ccc2ccccc21,37.6,"5.17 µM [rising, full curve]","6.51 µM [rising, single point]"
CCOC(=O)c1ccc(S(=O)(=O)N2CCN(S(=O)(=O)CC)CC2)cc1,-2.01,–,"32.6 µM [rising, single point]"
O=C(NCc1ccccc1)c1ncn(Cc2ccccc2)c1C(=O)NCc1ccccc1,-11.7,–,"0.00461 µM [falling, full curve, poor fit]"
O=[N+]([O-])c1ccc(S(=O)(=O)NNC(=S)NCCc2ccccc2)cc1,2.6,–,–
CCN1CCc2c(C#N)c(N3CCOCC3)nc(NCCO)c2C1,1.12,–,"3.26 µM [rising, single point]"
CCN(CC)S(=O)(=O)c1ccc(NS(=O)(=O)c2ccc(C)c(C)c2)cc1,–,–,"0.82 µM [rising, single point]"
COc1cccc(C(=O)Nc2cccc(-c3nc4ncccc4o3)c2C)c1,-12.5,–,"0.366 µM [rising, full curve]"
Cc1ncc([N+](=O)[O-])n1CCOC(=O)NC(Nc1ccc(F)cc1)C(Cl)(Cl)Cl (centres undefined),3.21,–,"0.326 µM [rising, full curve, poor fit]"
CC1CCC2CCCCC2N1C(=O)c1cc([N+](=O)[O-])cc([N+](=O)[O-])c1 (centres undefined),18.3,–,"25.9 µM [rising, partial curve, poor fit]"
CCn1c(=O)c([N+](=O)[O-])c(N2CCOCC2)c2ccccc21,-28.2,"3.26 µM [rising, partial curve]","4.11 µM [rising, partial curve]"
O=C(NC(=S)Nc1ccccc1N1CCOCC1)c1ccccc1F,-20.1,–,"25.9 µM [falling, partial curve, poor fit]"
CCCOc1ccc(C(=O)Nc2nc(C)c(Cc3ccc4c(c3)OCO4)s2)cc1,-40.9,"18.4 µM [falling, partial curve]","0.103 µM [rising, full curve, poor fit]"
C=CCN(CC=C)C(=S)NC(=O)/C=C/c1ccccc1,17.2,–,"3.26 µM [rising, full curve]"
CCOC(=O)c1c(C)n(O)c2ccc(Cl)cc2c1=O,-8.02,–,"0.116 µM [rising, single point]"

# Two compounds from above, limited to AC50 [2]:
Structure (SMILES)	AC50 [2]
CC[n+]1c(/C=C/c2ccc(OC(C)=O)c(OC)c2)ccc2ccccc21	6.51 µM [rising, single point]
CCOC(=O)c1ccc(S(=O)(=O)N2CCN(S(=O)(=O)CC)CC2)cc1	32.6 µM [rising, single point]

# Continued:

Structure (SMILES),cell number change [%],AC50 [1],AC50 [2]
O=C(NCCN1CCOCC1)C1CCCN(S(=O)(=O)c2ccc(F)cc2)C1 (centres undefined),13.9,–,"10.3 µM [rising, partial curve, poor fit]"
O=C(CSc1nccc(=O)[nH]1)N1CCOCC1,-6.44,–,–
COc1ccc2nc(/C(C#N)=C\c3ccc(Oc4ccc([N+](=O)[O-])cn4)cc3)[nH]c2c1,-16.3,"0.082 µM [rising, full curve, poor fit]","10.3 µM [falling, partial curve]"
CCn1ncc(Cl)c1C(=O)Nc1cc(Cl)ccc1Cl,41.6,"23.1 µM [rising, single point]","18.4 µM [rising, partial curve]"
COC(=O)[C@H](CCSC)NC(=O)NC1CCN(Cc2ccccc2)CC1,5.06,–,–
OC1(c2cccc(C(F)(F)F)c2)CCN(c2ncnc3c2[nH]c2ccccc23)CC1,-1.99,"0.13 µM [falling, full curve, poor fit]","0.13 µM [falling, full curve, poor fit]"
COC(=O)c1cc(C(=O)OCC(=O)NCc2ccc3c(c2)OCO3)cc([N+](=O)[O-])c1,–,–,"0.82 µM [rising, single point]"
Cc1sc2nc(C(C)(C)C)oc(=O)c2c1C,-48.7,"0.461 µM [falling, full curve]","20.6 µM [falling, single point]"
NC(=S)Nc1cccc2[nH]ccc12,-9.93,–,–
CCOC(=O)/C(C#N)=C\c1ccc(OC)c(OC)c1,120,"20.6 µM [rising, single point]",–
CC1CCC(NC(=O)Cn2cnc3sccc3c2=O)CC1 (centres undefined),13.5,–,"0.82 µM [rising, single point]"
CCN(CC(=O)Nc1ccc(OC)cc1)C(=O)CSCC(=O)Nc1ccc(C)cc1,51.1,–,"0.184 µM [rising, full curve]"
CC(=O)N1CCN(S(=O)(=O)c2ccc(F)c(Cl)c2)CC1,–,"3.66 µM [falling, single point]",–
CCCCOC(=O)c1cc(=O)[nH]c(=O)[nH]1,-2.04,–,–
C/C(=N\NC(=O)c1c(Br)c(C)nn1C)c1cccc(NC(=O)c2ccccc2F)c1,-66.7,"23.1 µM [falling, partial curve]","29.1 µM [falling, single point]"
C=CCn1c(=N)n(CC(=O)c2ccccc2)c2ccccc21,45.3,"16.4 µM [rising, partial curve, poor fit]",–
Cc1cc(C)cc(NC(=S)N2CCN(c3ncc(C(F)(F)F)cc3Cl)CC2)c1,1.19,"2.91 µM [rising, partial curve]","2.31 µM [rising, partial curve, poor fit]"
Cc1ccc(NC(=O)c2ccccc2NS(=O)(=O)c2ccc(Cl)s2)cc1,-16.7,"0.58 µM [falling, single point]",–
Cc1c(C(=O)CN2CCCC(C)(C)C2)c2ccccc2n1C,20.9,–,"0.0517 µM [rising, full curve, poor fit]"
CCC(=O)N1N=C(c2cccc(NS(C)(=O)=O)c2)CC1c1cccs1 (centres undefined),19.2,–,–

Structure (SMILES),cell number change [%],AC50 [1],AC50 [2]
CCOC(=O)C1(P(=O)(c2ccc(Cl)cc2)c2ccc(Cl)cc2)CCC1,–,–,"0.58 µM [falling, single point]"
COC(=O)c1ccc(CSc2nc3ccc(C)cc3[nH]2)o1,–,–,"3.66 µM [rising, partial curve]"
COc1ccc(C2CC(=O)C(CS(=O)(=O)c3ccccc3)C(=O)C2)cc1 (centres undefined),2.04,–,"0.116 µM [rising, full curve, poor fit]"
COc1cc(C(C(=O)NC2CCCCC2)N(C(=O)c2snc(C(N)=O)c2N)c2ccc(C)cc2)ccc1O (centres undefined),21.4,–,"23.1 µM [rising, partial curve]"
CCOc1ccc(-c2cc(NC(=O)c3c(F)cccc3F)c(C(=O)O)s2)cc1,–,"6.51 µM [falling, single point]",–
CCN(CC)c1ccc(/C=C/C(=O)c2ccc(Br)cc2)cc1,-96.9,"20.6 µM [falling, single point]","20.6 µM [falling, single point]"
O=C(NCC1COc2ccccc2O1)c1ccc(-n2cncn2)c([N+](=O)[O-])c1 (centres undefined),-16.3,–,"29.1 µM [falling, single point]"
O=C(c1ccccc1)c1cnc(Nc2ccccc2Cl)s1,17.2,–,"29.1 µM [rising, single point]"
O=C(Nc1ccccc1C(=O)N1CCOCC1)c1ccco1,-41.2,"11.6 µM [falling, partial curve]","11.6 µM [falling, partial curve]"
Cc1ccc(Sc2ccc(S(=O)(=O)Nc3ccc(CC(=O)O)cc3)cc2)cc1C,1.46,–,–
O=C(O)CCCSc1nccn1-c1ccccc1,–,"3.26 µM [falling, partial curve, poor fit]",–
CSc1nc2[nH]c3c(c2c2nncn12)CC(C)(C)OC3,32.4,"1.64 µM [rising, partial curve, poor fit]","0.58 µM [rising, single point]"
COc1ccc(-n2ncc3c2CC(C)(C)CC3NC(=O)c2ccnn2C)cc1 (centres undefined),–,–,"18.4 µM [falling, partial curve]"
OCC[C@H]1C[C@@H](O)[C@H](O)[C@@]2(OCc3ccccc32)O1,6.67,–,"16.4 µM [rising, single point]"
COc1ccc(S(=O)(=O)N(C)CC(=O)Nc2cccc(C(C)=O)c2)cc1Cl,–,"0.00517 µM [falling, full curve, poor fit]",–
N/C(=N\N=C\c1ccco1)SC1CC(=O)N(c2ccc(C(=O)O)cc2)C1=O (centres undefined),-28.1,–,"14.6 µM [falling, partial curve]"
O=S(=O)(NCC1OCCc2ccccc21)c1ccccc1 (centres undefined),-6.12,–,"20.6 µM [rising, single point]"
CCn1c(SCC(=O)c2ccccc2)nc2ccccc2c1=O,–,–,"1.03 µM [rising, partial curve]"
Cc1ccc(CNC(=O)CCNC(=O)c2ccco2)cc1,34.7,"0.0651 µM [rising, full curve, poor fit]","0.0731 µM [rising, full curve, poor fit]"

# A run of entries from further up, as a working copy:
Structure (SMILES),cell number change [%],AC50 [1],AC50 [2]
CC1CCC(NC(=O)Cn2cnc3sccc3c2=O)CC1 (centres undefined),13.5,–,"0.82 µM [rising, single point]"
CCN(CC(=O)Nc1ccc(OC)cc1)C(=O)CSCC(=O)Nc1ccc(C)cc1,51.1,–,"0.184 µM [rising, full curve]"
CC(=O)N1CCN(S(=O)(=O)c2ccc(F)c(Cl)c2)CC1,–,"3.66 µM [falling, single point]",–
